This is an account of results in PubChem BioAssay AID248 (DTP/NCI, 2004).

Molecules are shown by their SMILES. The list is a part of this screen's results and no random one: it gathers tests that were run many times, whatever their T/C, doses with no T/C, and many T/C values between a quarter and a half above the control. Further doses and runs are listed elsewhere. T/C: endpoint of the treated group in % of that of the vehicle group. Some entries give survivors of the animals treated and no T/C: the source holds a T/C of zero for them, seemingly a mark for toxic or unscored doses. Some survivor counts are full or nearly so, which does not show that the dose was tolerated: survival well below the control is almost never listed, so the zero probably covers shortened survival too. Counts of survivors are from the toxicity check (mostly the fifth day) where no day follows; animals may have died later. Schedules are NCI's codes, read here as Q, the interval in days (D) or hours (H), X, the number of doses. For survival time, this PubChem deposit counts one and a half times the control or more as active, and values a quarter to a half above the control carry no call in these data; other NCI protocols may use other cut-offs. Some doses were run more than once; the results are listed from low to high. Additions like (4×) say how often a value occurs here. Some T/C values are followed by the survivors on the day toxicity was checked, most often the fifth; without a count, all were alive then.

In this assay the test system is L1210 leukemia ip in BDF1 mice, survival T/C. Nature of the assay: NCI In Vivo Anticancer Drug Screen. Data for tumor model L1210 Leukemia (intraperitoneal) in B6D2F1 (BDF1) mice. The settings on record: higher T/C = longer survival.
[1] abbreviates: T/C endpoint: mean survival time, dose: 400.0 mg/kg/injection, schedule: Q04DX003 (ip), vehicle: carboxymethylcellulose (CMC).
Setting [2] is: T/C endpoint: mean survival time, dose: 400.0 mg/kg/injection, schedule: Q04DX003 (ip), vehicle: saline.
[3] abbreviates: T/C endpoint: mean survival time, dose: 400.0 mg/kg/injection, schedule: Q01DX001 (ip), vehicle: saline.
Setting [4] is: T/C endpoint: mean survival time, dose: 200.0 mg/kg/injection, schedule: Q01DX001 (ip), vehicle: saline.
Where [5] appears, read: T/C endpoint: median survival time, dose: 64.0 mg/kg/injection, schedule: Q01DX009 (oral), vehicle: saline.

Take `CCCCNC(c1ccccc1)=[N+]1C(C)CCCC1C` (stereo not drawn): the survivor count (T/C endpoint: mean survival time, dose: 25.0 mg/kg/injection, schedule: Q04DX002 (ip), vehicle: saline) is given as 0 of 3; the survivor count (T/C endpoint: mean survival time, dose: 50.0 mg/kg/injection, schedule: Q04DX002 (ip), vehicle: saline) is reported as 0 of 3; the survivor count (T/C endpoint: mean survival time, dose: 100.0 mg/kg/injection, schedule: Q04DX002 (ip), vehicle: saline) is 3 of 3; the survivor count (T/C endpoint: mean survival time, dose: 200.0 mg/kg/injection, schedule: Q04DX002 (ip), vehicle: saline) is reported as 2 of 3; the survivor count (T/C endpoint: mean survival time, dose: 400.0 mg/kg/injection, schedule: Q04DX002 (ip), vehicle: saline) is given as 3 of 3.
On to `N#CSCc1cc([N+](=O)[O-])c(CSC#N)c([N+](=O)[O-])c1Cl`, for which the survivor count is, setting by setting: (T/C endpoint: mean survival time, dose: 50.0 mg/kg/injection, schedule: Q01DX009 (ip), vehicle: other) 2 of 6; (T/C endpoint: mean survival time, dose: 100.0 mg/kg/injection, schedule: Q01DX009 (ip), vehicle: other) 3 of 6; under setting [1], 4 of 6.
`C=C1C(=O)OC2CCC3OC3CCC12` (stereo not drawn) (tested in a mixture with another compound): the survivor count under setting [2] is listed as 1 of 4.
For `C/C(CC(C)C)=N\NC(=O)Nc1cccc(Cl)c1C`, for the setting “T/C endpoint: mean survival time, dose: 400.0 mg/kg/injection, schedule: Q04DX002 (ip), vehicle: Klucel (hydroxypropylcellulose) (HPC)”, the survivor count was 3 of 3.
On to `O=C(O)C1C2CCCCCCC21` (stereo not drawn), for which the survivor count (T/C endpoint: mean survival time, dose: 400.0 mg/kg/injection, schedule: Q01DX005 (ip), vehicle: Klucel (hydroxypropylcellulose) (HPC)) is 1 of 3.
Consider `Nc1ccc(/C=C2\C=Cc3ccccc32)cc1`, for which the survivor count was 2 of 6 (T/C endpoint: mean survival time, dose: 75.0 mg/kg/injection, schedule: Q01DX001 (ip), vehicle: acetone); 0 of 6 (T/C endpoint: mean survival time, dose: 75.0 mg/kg/injection, schedule: Q01DX009 (ip), vehicle: saline); 0 of 6 (T/C endpoint: mean survival time, dose: 150.0 mg/kg/injection, schedule: Q01DX001 (ip), vehicle: acetone); 3 of 6 (T/C endpoint: mean survival time, dose: 200.0 mg/kg/injection, schedule: Q01DX001 (ip), vehicle: olive oil, sesame oil, peanut oil); 1 of 6 (T/C endpoint: mean survival time, dose: 400.0 mg/kg/injection, schedule: Q01DX001 (ip), vehicle: olive oil, sesame oil, peanut oil).
For `COc1ccc2c(C(=O)N(CCCl)CCCl)cc3cc(OC)c(OC)cc3c2c1`, the survivor count (T/C endpoint: mean survival time, dose: 100.0 mg/kg/injection, schedule: Q04DX003 (ip), vehicle: saline) is listed as 4 of 4.
As to `COc1ccc(OC)c(NC(=O)Nc2cccc(C(F)(F)F)c2)c1`, the survivor count (T/C endpoint: mean survival time, dose: 100.0 mg/kg/injection, schedule: Q01DX009 (ip), vehicle: carboxymethylcellulose (CMC)) is given as 6 of 6; the survivor count (T/C endpoint: mean survival time, dose: 200.0 mg/kg/injection, schedule: Q01DX009 (ip), vehicle: carboxymethylcellulose (CMC)) was 6 of 6; the survivor count (T/C endpoint: mean survival time, dose: 400.0 mg/kg/injection, schedule: Q04DX002 (ip), vehicle: carboxymethylcellulose (CMC)) is given as 6 of 6; the survivor count under setting [1] is listed as 6 of 6.
For the compound `CCC(CC)(CC)OC(=O)NS(=O)(=O)c1ccc(Cl)cc1`, the survivor count is 3 of 6 (T/C endpoint: mean survival time, dose: 200.0 mg/kg/injection, schedule: Q01DX009 (ip), vehicle: acetone) and 0 of 6 (T/C endpoint: mean survival time, dose: 400.0 mg/kg/injection, schedule: Q01DX009 (ip), vehicle: acetone).
Regarding `CCOc1ccccc1C1CCCCC1OS(=O)(=O)c1ccc(C)cc1` (stereo not drawn), the survivor count (T/C endpoint: mean survival time, dose: 50.0 mg/kg/injection, schedule: Q01DX009 (ip), vehicle: acetone) was 6 of 6.
In the case of `CCN(CC)CCCC(C)n1nnc2cc(Cl)ccc21` (stereo not drawn), the survivor count under setting [3] is on record as 1 of 4.
Turning to `CC(=O)NC(C(C)=O)C(C)=O.CC(=O)NC(C(C)=O)C(C)=O.[Cu]`, the survivor count (T/C endpoint: mean survival time, dose: 50.0 mg/kg/injection, schedule: Q01DX001 (ip), vehicle: saline) is listed as 2 of 6; the survivor count (T/C endpoint: mean survival time, dose: 100.0 mg/kg/injection, schedule: Q01DX001 (ip), vehicle: saline) is 0 of 6; the survivor count under setting [4] was 0 of 6; the survivor count under setting [3] is listed as 0 of 6.
For `CCN(CC)CC(O)COc1ccccc1C` (stereo not drawn), the survivor count under setting [4] is 0 of 4 and the survivor count under setting [3] is given as 0 of 4.
Turning to `CCCCCCCCCCCCCC[S+](C)C`, for the setting “T/C endpoint: mean survival time, dose: 50.0 mg/kg/injection, schedule: Q01DX009 (ip), vehicle: saline”, the survivor count was 2 of 6.
Turning to `C[C@H](CN1CC(=O)NC(=O)C1)N1CC(=O)NC(=O)C1`, the T/C runs as follows: (T/C endpoint: mean survival time, dose: 100.0 mg/kg/injection, schedule: Q04DX003 (ip), vehicle: water) 129 % of control; (T/C endpoint: median survival time, dose: 8.0 mg/kg/injection, schedule: Q01DX009 (ip), vehicle: saline) 115, 127, 131 (2×), 133 % of control; (T/C endpoint: median survival time, dose: 8.0 mg/kg/injection, schedule: Q01DX009 (oral), vehicle: saline) 130, 130 [9 of 10 alive], 139, 141 % of control; (T/C endpoint: median survival time, dose: 8.0 mg/kg/injection, schedule: Q01DX009 (sc), vehicle: saline) 126 % of control; (T/C endpoint: median survival time, dose: 8.0 mg/kg/injection, schedule: Q03HX024 (ip), vehicle: saline) 142 % of control; (T/C endpoint: median survival time, dose: 16.0 mg/kg/injection, schedule: Q01DX009 (ip), vehicle: saline) 140, 152 (2×), 155, 162 % of control. The T/C was 141, 151, 153, 157 % of control (T/C endpoint: median survival time, dose: 16.0 mg/kg/injection, schedule: Q01DX009 (oral), vehicle: saline); 132, 152, 164, 171, 175 % of control (T/C endpoint: median survival time, dose: 32.0 mg/kg/injection, schedule: Q01DX009 (ip), vehicle: saline); 98, 106, 128, 172 % of control (T/C endpoint: median survival time, dose: 32.0 mg/kg/injection, schedule: Q01DX009 (oral), vehicle: saline); 139 % of control [9 of 10 alive] (T/C endpoint: median survival time, dose: 32.0 mg/kg/injection, schedule: Q03HX016 (ip), vehicle: saline); 115, 120, 124, 141, 168 % of control (T/C endpoint: median survival time, dose: 64.0 mg/kg/injection, schedule: Q01DX009 (ip), vehicle: saline); 86, 89, 102 % of control under setting [5]. Besides, the T/C is 132 % of control (T/C endpoint: median survival time, dose: 128.0 mg/kg/injection, schedule: Q04DX003 (sc), vehicle: saline); 142 % of control (T/C endpoint: median survival time, dose: 256.0 mg/kg/injection, schedule: Q04DX003 (ip), vehicle: saline); 145, 146, 153, 226 % of control (T/C endpoint: median survival time, dose: 256.0 mg/kg/injection, schedule: Q04DX003 (oral), vehicle: saline); 147 % of control (T/C endpoint: median survival time, dose: 256.0 mg/kg/injection, schedule: Q08DX002 (ip), vehicle: saline); 164, 173, 177, 271 % of control (T/C endpoint: median survival time, dose: 512.0 mg/kg/injection, schedule: Q04DX003 (oral), vehicle: saline); 130 % of control (T/C endpoint: median survival time, dose: 1024.0 mg/kg/injection, schedule: Q01DX001 (ip), vehicle: saline). The T/C was 108, 151, 194, 206 % of control (T/C endpoint: median survival time, dose: 1024.0 mg/kg/injection, schedule: Q04DX003 (oral), vehicle: saline) and 87, 91 (2×), 111 % of control (T/C endpoint: median survival time, dose: 2048.0 mg/kg/injection, schedule: Q04DX003 (oral), vehicle: saline). The survivor count is, setting by setting: under setting [5], 10 of 10; (T/C endpoint: median survival time, dose: 64.0 mg/kg/injection, schedule: Q03HX008 (ip), vehicle: saline) 10 of 10; (T/C endpoint: median survival time, dose: 64.0 mg/kg/injection, schedule: Q03HX016 (ip), vehicle: saline) 7 of 10; (T/C endpoint: median survival time, dose: 64.0 mg/kg/injection, schedule: Q03HX024 (ip), vehicle: saline) 9 of 10; (T/C endpoint: median survival time, dose: 128.0 mg/kg/injection, schedule: Q01DX009 (oral), vehicle: saline) 10 of 10; (T/C endpoint: median survival time, dose: 128.0 mg/kg/injection, schedule: Q03HX016 (ip), vehicle: saline) 10 of 10. Also, under “T/C endpoint: median survival time, dose: 128.0 mg/kg/injection, schedule: Q03HX024 (ip), vehicle: saline”, the survivor count is reported as 10 of 10.
On to `N#CCCN(C(=O)COc1ccc(Cl)cc1Cl)C1CCCCC1`, for which the survivor count (T/C endpoint: mean survival time, dose: 400.0 mg/kg/injection, schedule: Q04DX003 (ip), vehicle: Klucel (hydroxypropylcellulose) (HPC)) was 6 of 6.
With `O=C(O)/C=C\c1c[nH]c2nccnc12`, the survivor count is 3 of 6 (T/C endpoint: mean survival time, dose: 100.0 mg/kg/injection, schedule: Q01DX009 (ip), vehicle: saline); 0 of 6 (T/C endpoint: mean survival time, dose: 200.0 mg/kg/injection, schedule: Q04DX003 (ip), vehicle: saline); 0 of 6 under setting [2].
